Test results from PubChem BioAssay AID1347076 (National Center for Advancing Translational Sciences (NCATS), 2019).
About 13,000 (3.2%) of roughly 400,000 compounds were called active. The inconclusive results got no clear call from the source; some entries with a clear call stand among them for comparison. Calls come from the whole dose curve; as a rule, active = well fitted cell-killing curve with a large enough effect; inconclusive = small, poorly fitted or top-dose-only effect, or effect the other way; inactive = flat fitted curve, though single readings scatter. Where the call is inconclusive, the potency comes from a doubtful curve fit.

Assay: qHTS assay for MDR1-selective chemotherapeutics: Primary screen using the drug-selected MDR subline cells KB-V1; note: nearly all actives have a fitted effect of over 60% in size
Conditions: KB-V1 MDR cells viability, CellTiter-Glo, 72 h; activity change, negative = cytotoxicity: at 46.1 µM (top of the series)
In short: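 Drug-selected KB-V1 cells, grown in DMEM lacking phenol red with 10% FBS, receive compound titrations; after three days at 37 degrees C, surviving cell ATP is quantified by CellTiter-Glo luminescence and responses normalized and curve-fitted.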
% is set by controls: 0 for no effect and ±100 for the full control effect; potency is the fitted concentration of half-maximal effect.

| SMILES | Potency | activity change, negative = cytotoxicity |
| --- | --- | --- |
| Cc1ccc(NCCN(C)C)c2c(=O)c3cc(O)ccc3sc12 | active: 11.6 µM | – |
| CCc1ccccc1NC(=O)CN(C)C(=O)CSc1nnc(Nc2cccc(C)c2C)s1 | active: 18.4 µM | – |
| COc1ccc(-n2c(C)cc(C(=O)CN3C(=O)C(=O)N(Cc4ccccc4)C3=O)c2C)cc1 | inconclusive: 18.4 µM [cytotoxic, single point] | – |
| COC(=O)c1sc2ccccc2c1-n1cccc1C(=O)C(=O)Nc1ccc(F)cc1 | inactive | – |
| O=[N+]([O-])c1c(NCc2ccco2)ncnc1NCc1ccco1 | inactive | – |
| O=C1CCCN1C(=O)CSc1nnnn1-c1cccc(F)c1 | inactive | – |
| CCc1cccc(NC(=O)C2CCN(S(=O)(=O)c3ccc4c(c3)CC(C)N4C(C)=O)CC2)c1 (stereo not drawn) | inconclusive: 29.1 µM [cytotoxic, single point] | – |
| O=C(Nc1cccc(F)c1)C1CCN(C(=O)c2ccc(Br)cc2)CC1 | inconclusive: 13 µM [cytotoxic, partial curve] | – |
| COc1c(Br)cc(Br)cc1/C=N/NC(=O)c1ccncc1 | inactive | – |
| Cc1cc(C)cc(NC(=O)C2C3C=CC4(O3)C2C(=O)N(CCCN2CCCCC2)C4C(=O)NC2CCCCC2)c1 (stereo not drawn) | inconclusive: 29.1 µM [rising, single point] | – |
| Cc1c(C(=O)N/N=C/c2ccccc2)[nH]c2ccc(Cl)cc12 | inactive | – |
| Oc1ccccc1-c1cncn1Cc1ccccc1 | inconclusive: 13 µM [rising, single point] | – |
| O=C(Nc1ccc(Cl)cc1)c1ccc2nsnc2c1 | inconclusive: 29.1 µM [cytotoxic, single point] | – |
| CC(C)(C)c1ccc(-c2cnco2)cc1 | inconclusive: 18.4 µM [rising, single point] | – |
| Cn1cc(Br)c(C(=O)N/N=C/c2cccc(OC3CSC3)c2)n1 | – | inconclusive: -57.3% |
| O=C(COC(=O)c1ccccn1)Nc1ccc2c(c1)OCCO2 | inactive | – |
| COc1cc(CNc2ncnc3c2ncn3[C@H]2CN(CCc3ccccc3)C[C@@H](CO)O2)cc(OC)c1OC | inactive | – |
| Cc1ccsc1C(=O)Nc1nnc(-c2ccco2)o1 | inconclusive: 22.4 µM [cytotoxic, single point] | – |
| N/C(=N\OC(=O)c1cccc(Cn2cc(C(F)(F)F)ccc2=O)c1)c1ccccc1 | inconclusive: 23.1 µM [cytotoxic, single point] | – |
| CCCC#Cc1ccc2c(c1)O[C@H](CN(C)C(=O)CC1CC1)[C@H](C)CN([C@@H](C)CO)S2(=O)=O | inactive | – |
| O=C(CCN1C(=O)/C(=C/C=C/c2ccccc2)SC1=S)Nc1cccnc1 | inconclusive: 14.6 µM [cytotoxic, partial curve] | – |
| CC(C#N)Sc1ncnc2sc3c(c12)CCC3 (stereo not drawn) | inconclusive: 20.6 µM [cytotoxic, single point] | – |
| CCCCSc1nnc2c(n1)OC(c1ccc(Br)s1)Nc1ccccc1-2 (stereo not drawn) | inactive | – |
| S=C(Nc1ccc2nsnc2c1)NC1CCCCC1 | active: 16.4 µM | – |
| O=C(NCc1ccccn1)[C@@H]1CCCN1C(=O)[C@@H]1CCCN1C(=O)c1ccccc1 | inactive | – |

Full records from above. Values in the order: Potency | activity change, negative = cytotoxicity
Cc1c(C(=O)N/N=C/c2ccccc2)[nH]c2ccc(Cl)cc12 is listed with inactive | –
O=C(NCc1ccccn1)[C@@H]1CCCN1C(=O)[C@@H]1CCCN1C(=O)c1ccccc1 is listed with inactive | –
O=C(CCN1C(=O)/C(=C/C=C/c2ccccc2)SC1=S)Nc1cccnc1 is listed with inconclusive: 14.6 µM [cytotoxic, partial curve] | –

The results go on.

| SMILES | Potency | activity change, negative = cytotoxicity |
| --- | --- | --- |
| CC(C)C(Cl)=NOC(=O)Nc1ccc(F)cc1 | inactive | – |
| C=CCOC(=O)Nc1nc(CCNC(=O)OCc2ccccc2)c(C(=O)OC)s1 | inconclusive: 7.31 µM [cytotoxic, partial curve, poor fit] | – |
| COC(=O)c1ccc2nc(-c3ccc(F)cc3)c(Cc3ccccc3C(F)(F)F)n2c1 | inconclusive: 4.61 µM [cytotoxic, partial curve, poor fit] | – |
| Cc1ccc(-c2nc(CSc3nnc(C)n4c3cc3occc34)c(C)o2)cc1 | inactive | – |
| COc1ccc(CNC(=O)c2c(O)nc3c(C)cccn3c2=O)cc1 | inconclusive: 23.1 µM [cytotoxic, single point] | – |
| COc1cc(NC(=O)C2C3C=CC(C3)C2C(=O)O)ccc1NC(=O)c1ccccc1 (stereo not drawn) | inconclusive: 9.2 µM [cytotoxic, partial curve] | – |
| Cn1c(=O)c2c(nc(N/N=C/c3cccs3)n2Cc2ccccc2)n(C)c1=O | inconclusive: 1.46 µM [cytotoxic, partial curve, poor fit] | – |
| CC1=C(C#N)C(c2ccccc2)C2=C(N1)c1ccccc1C2=O (stereo not drawn) | active: 3.26 µM | – |
| O=C(CSc1cccc[n+]1[O-])Nc1cc(Cl)ccc1[N+](=O)[O-] | inactive | – |
| COc1ccc(/C=N/NC(=O)c2cccc(Br)c2)cc1Cn1cc(Cl)cn1 | inconclusive: 5.8 µM [cytotoxic, full curve, poor fit] | – |
| COc1ccc(/C=N/NC(=O)CNS(=O)(=O)c2ccccc2)cc1 | inconclusive: 25.9 µM [cytotoxic, single point] | – |
| Nc1nonc1C(=O)OCC(=O)c1ccc(Cl)cc1 | inconclusive: 16.4 µM [rising, single point] | – |
| Cc1cccc2nc(-c3ccccn3)c(Nc3ccccc3)n12 | active: 6.51 µM | – |
| CCOc1ccc(-c2nc(-c3ccccc3)c(-c3ccccc3)[nH]2)cc1OCC | inactive | – |
| COc1cc2nc(Nc3cccc(F)c3)nc(N)c2cc1OC | inconclusive: 29.1 µM [cytotoxic, single point] | – |
| CC[C@@H]1CC=C[C@H]2[C@H]1C(=O)N(Cc1ccccc1)[C@H]2c1ccoc1 | inconclusive: 23.1 µM [cytotoxic, single point] | – |
| CCOC(=O)C1CCN(c2c(N3CCN(c4ccccc4OC)CC3)c(=O)c2=O)CC1 | inconclusive: 3.66 µM [cytotoxic, partial curve, poor fit] | – |
| O=S(=O)(NCCc1nnc2ccc(SCc3ccccc3Cl)nn12)c1ccccc1 | inactive | – |
| CN1C(=O)C(CC#N)(C2(CC#N)C(=O)N(C)c3ccccc32)c2ccccc21 (stereo not drawn) | inactive | – |
| Nc1c(C(=O)CSc2nnc(Nc3ccc(F)cc3)s2)c(=O)[nH]c(=O)n1C1CC1 | inconclusive: 29.1 µM [rising, single point] | – |
| Cc1ccc2c(c1)C=CC(C)(C)S2(=O)=O | inactive | – |
| Cc1ccc(S(=O)(=O)N(C)c2ccc(C(=O)NCc3cccnc3)cc2)cc1 | inactive | – |
| CCOCCCN(Cc1ccco1)C(=O)c1cc2c(s1)-c1c(C)cccc1OC2 | inconclusive: 16.4 µM [cytotoxic, partial curve, poor fit] | – |
| Cc1ccc(C(=O)NCC(=O)NCC(c2ccco2)N2CCCCC2)cc1C (stereo not drawn) | inconclusive: 7.31 µM [cytotoxic, partial curve] | – |
| CC(C)(C)OC(=O)NCC12C=CC(O1)C1C(=O)N(Cc3ccccc3)C(=O)C12 (stereo not drawn) | inconclusive: 20.6 µM [cytotoxic, single point] | – |

| SMILES | Potency | activity change, negative = cytotoxicity |
| --- | --- | --- |
| CCc1ccc(C2CC(=O)Nc3c2c(=O)n(C)c2ncnn32)cc1 (stereo not drawn) | inconclusive: 23.1 µM [cytotoxic, single point] | – |
| CC(C)CN1C(=O)c2ccc(NC(=O)c3cccs3)cc2C1=O | active: 13 µM | – |
| O=C(Cc1ccccc1F)Nc1cc(S(=O)(=O)N2CCCCC2)ccc1N1CCOCC1 | inactive | – |
| COc1cc(NC(=O)CSc2nnnn2C2CCCC2)cc(OC)c1 | inactive | – |
| O=C(O)c1cccc(NC(=O)C23CC4CC(C2)CC(n2cnc(Cl)n2)(C4)C3)c1 | – | inconclusive: 48.4% |
| COCCNC(=S)N1CCN(c2nc3ccccc3s2)CC1 | inactive | – |
| O=C(NNc1ccc([N+](=O)[O-])cn1)Nc1ccc(N=Nc2ccccc2)cc1 | inactive | – |
| CCCCCCSc1ccc([C@@H]2[C@@H]3C(=O)N(C)C(=O)[C@@H]3[C@]3(C(=O)OC)CCCCN23)cc1OC | inconclusive: 29.1 µM [cytotoxic, single point] | – |
| Cc1ccsc1C(=O)N1CCCC(CCC(=O)NCc2ccc(F)c(F)c2)C1 (stereo not drawn) | inconclusive: 29.1 µM [cytotoxic, single point] | – |
| O=C(NCCc1ccc(Cl)cc1)C1CCN(c2cnccn2)CC1 | inconclusive: 18.4 µM [cytotoxic, partial curve, poor fit] | – |
| CN(CCNC(=O)C1CCN(S(=O)(=O)c2cnc[nH]2)CC1)Cc1ccccc1 | inconclusive: 23.1 µM [rising, partial curve, poor fit] | – |
| CCn1c(CN2CCN(C)CC2)nc2cc(NC(=O)c3ccc([N+](=O)[O-])cc3)ccc21 | inconclusive: 2.91 µM [rising, full curve, poor fit] | – |
| O=S(=O)([N-]c1nc2ccccc2nc1-n1cc[n+](Cc2ccccc2)c1)c1ccc(Cl)cc1 | inactive | – |
| COc1ccc(C(=O)NC2CCCc3ccccc32)cc1 (stereo not drawn) | inactive | – |
| O=C(CCCN1C(=O)/C(=C/c2ccco2)SC1=S)Nc1ccccc1C(=O)O | inconclusive: 29.1 µM [rising, single point] | – |
| CC(C)C(=O)Nc1cc2c3c(c1)CCN3C(=O)CC2 | – | inconclusive: 32.4% |
| CC(NC(=O)C12CC3CC(CC(C3)C1)C2)C(=O)N/N=C/C1=C(N2CCOCC2)C(=C\c2ccccc2)/CC1 (stereo not drawn) | inconclusive: 5.17 µM [cytotoxic, partial curve, poor fit] | – |
| O=C(N/N=C\C1CC=CCC1)c1ccc(Br)o1 (stereo not drawn) | inconclusive: 7.31 µM [rising, partial curve] | – |
| O=C1CC(c2ccccc2)CCc2sccc2N1 (stereo not drawn) | inconclusive: 25.9 µM [cytotoxic, single point] | – |
| Cc1nc(C(F)(F)F)ccc1C(=O)N1CCC1(C)C(=O)NS(=O)(=O)c1ccccc1 (stereo not drawn) | inactive | – |
| COc1ccc(C2=NC(c3ccccc3)=Nc3ccc(C)cc3N2)cc1 | inactive | – |
| CCOc1ccccc1NC(=O)c1nnn(CC(=O)Nc2ccc3c(c2)OCO3)c1N | inconclusive: 16.4 µM [rising, single point] | – |
| CCC(=O)OC1(C(=O)CCl)[C@@H](C)C[C@H]2[C@@H]3CCC4=CC(=O)C=C[C@]4(C)[C@@]3(F)[C@@H](O)C[C@@]21C (stereo partly drawn) | inconclusive: 8.2 µM [cytotoxic, partial curve] | – |
